# No constants are given. Whether binding was seen depends on the method and setting. Binding seen in cells or lysates may run through a third protein. These calls come from enrichment with a bait or labelling near it, and not all partners need be listed.
# Sequences of proteins named here, by UniProt entry; tags and fusion partners are left off. A change or cut given only in a name is not applied to a line headed by its entry. Residues count along the entry.
# UniProt P14416: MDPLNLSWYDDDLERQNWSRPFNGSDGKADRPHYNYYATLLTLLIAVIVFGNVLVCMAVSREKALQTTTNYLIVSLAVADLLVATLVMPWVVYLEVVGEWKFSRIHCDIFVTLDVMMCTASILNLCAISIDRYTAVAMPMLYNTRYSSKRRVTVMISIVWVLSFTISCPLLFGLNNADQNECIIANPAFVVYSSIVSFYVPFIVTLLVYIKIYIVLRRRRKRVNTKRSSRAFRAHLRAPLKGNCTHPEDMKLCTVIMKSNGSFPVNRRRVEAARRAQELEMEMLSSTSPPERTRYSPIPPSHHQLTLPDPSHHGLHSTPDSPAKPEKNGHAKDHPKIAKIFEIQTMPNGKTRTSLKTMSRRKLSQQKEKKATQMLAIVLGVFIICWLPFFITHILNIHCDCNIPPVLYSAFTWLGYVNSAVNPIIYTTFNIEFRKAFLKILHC
# UniProt O14775, residues 43-395: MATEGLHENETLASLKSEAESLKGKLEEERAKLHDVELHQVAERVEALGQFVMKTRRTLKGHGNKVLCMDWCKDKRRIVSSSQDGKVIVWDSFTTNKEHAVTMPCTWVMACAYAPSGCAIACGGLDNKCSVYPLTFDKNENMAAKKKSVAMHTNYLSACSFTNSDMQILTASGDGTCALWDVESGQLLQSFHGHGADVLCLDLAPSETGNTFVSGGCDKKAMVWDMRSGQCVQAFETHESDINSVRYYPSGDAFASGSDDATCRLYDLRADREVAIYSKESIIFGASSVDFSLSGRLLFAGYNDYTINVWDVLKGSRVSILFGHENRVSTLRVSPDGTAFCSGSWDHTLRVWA
# Target: FLAG-tagged D2R construct with the biotin ligase acceptor peptide insertion into the 3rd cytoplasmic loop (D2R-AP) (human) (UniProt P14416)
# Assay: proximity labelling; in-cell proximity biotin transfer: D2R-AP coexpressed with a BirA fusion in HEK293 cells in biotin-free medium; 10 µM biotin for 2 min at 25°C on intact cells; lysis in cold 2% TX100, soluble and insoluble fractions blotted with streptavidin-HRP
sequence,measurement,value
G protein beta 5-biotin ligase fusion (Gβ5-BL) (from UniProt O14775-2 1-353),binding,binds
